The target of the assay is HSV-1 UL31 1–306 (herpes simplex virus type 1) (UniProt P10215). The assay is described as follows: co-purification of a co-expressed complex; UL31 1–306 and UL34 1–220 co-expressed in E. coli; purified as in ref. 14, passed over HiTrap Talon to remove cleaved His6-SUMO, then size-exclusion chromatography.

Sequences of proteins named here, by UniProt entry; tags and fusion partners are left off. Residues count along the entry.
UniProt P10215: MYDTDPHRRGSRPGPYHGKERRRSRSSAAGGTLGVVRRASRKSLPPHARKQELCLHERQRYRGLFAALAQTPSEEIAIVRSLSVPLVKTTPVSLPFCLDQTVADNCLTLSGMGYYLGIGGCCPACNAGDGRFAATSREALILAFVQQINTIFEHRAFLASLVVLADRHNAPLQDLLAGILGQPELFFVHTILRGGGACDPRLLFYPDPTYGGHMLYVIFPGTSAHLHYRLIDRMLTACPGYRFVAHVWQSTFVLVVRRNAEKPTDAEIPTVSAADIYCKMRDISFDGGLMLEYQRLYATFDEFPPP
UniProt P10218, residues 1-220: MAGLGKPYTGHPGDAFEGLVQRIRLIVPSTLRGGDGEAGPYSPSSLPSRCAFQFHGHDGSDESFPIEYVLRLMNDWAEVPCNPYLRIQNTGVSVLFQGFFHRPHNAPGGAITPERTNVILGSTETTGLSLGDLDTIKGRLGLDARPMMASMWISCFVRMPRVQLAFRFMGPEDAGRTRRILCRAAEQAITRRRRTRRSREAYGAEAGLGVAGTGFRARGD

Results are given in words; binding and its absence hold for the method and conditions named. Some entries that bind do so weakly or less than the wild type.

As to “HSV-1 UL34 1–220 (from UniProt P10218 1-220) (domain or fragment)”, the binding result is “binds”.

The values are drawn from paper PMC7893173.
